Assay results published in article PMC11478330.
Construct, isoform or probe ends are uncertain for at least one entry. At least one verdict rests on a figure or table, not on a statement of the authors.

Sequences of proteins named here, by UniProt entry; tags and fusion partners are left off. Residues count along the entry.
UniProt P07288, 25-261: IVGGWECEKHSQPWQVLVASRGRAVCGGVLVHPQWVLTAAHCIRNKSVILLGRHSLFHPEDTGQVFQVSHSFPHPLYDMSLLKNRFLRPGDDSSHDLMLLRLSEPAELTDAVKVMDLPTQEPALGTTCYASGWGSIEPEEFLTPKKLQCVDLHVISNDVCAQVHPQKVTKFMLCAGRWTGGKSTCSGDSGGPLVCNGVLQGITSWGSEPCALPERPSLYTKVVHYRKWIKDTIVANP

Target: prostate-specific antigen (PSA) (UniProt P07288)
Test: sandwich amperometric aptasensor
Settings: PSA captured by Apt-ADA, Apt-HRP as label, H2O2/hydroquinone, range 0.5-50 ng/mL, LOD 0.11 ng/mL in PBS (not Kd), 5' amino-C6 coupled to periodate-oxidized HRP, PBS (detection limit measurement), binding buffer details, commercial protein, folded or branched …

Q: Does “TTTTTAATTAAAGCTCGCCATCAAATAGCTTT [anti-PSA aptamer-HRP conjugate (Apt-HRP)]” bind?
A: Result: binds
